The list is a part of this screen's results and no random one: it is rich in T/C values a quarter to a half above the control, in often repeated tests (any T/C) and in doses without a T/C. Other doses and runs of a compound stand elsewhere. T/C gives the treated animals as a percentage of the vehicle group. Some entries give survivors of the animals treated and no T/C: the source files T/C as zero there, which appears to mark a toxic dose or a test without result, not a measured value. Some doses without a T/C left all or most animals alive at the check, yet need not have been tolerated: survival well below the control is almost never listed, so the zero probably covers shortened survival too. Counts of survivors are from the toxicity check (mostly the fifth day) where no day follows; animals may have died later. Schedule codes are those of the source, taken here to give the interval after Q, in days (D) or hours (H), and the number of doses after X. Some entries were tested several times; their values stand side by side, smallest first. Where survival is the endpoint, the PubChem record calls one and a half times the control and up active, and a quarter to a half above the control has no call in these data; cut-offs in other NCI protocols can differ. Some T/C values carry the count of animals alive at the toxicity check (mostly the fifth day); without a count, all were alive then.
Tested on: CD2F1 mice, L1210 leukemia ip, survival T/C
Assay: NCI In Vivo Anticancer Drug Screen. Data for tumor model L1210 Leukemia (intraperitoneal) in CD2F1 (CDF1) mice
Settings: higher T/C = longer survival
Summary of the method: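 In this screen, transplantable tumors were grown in mice given either the compound or its vehicle. Results were expressed as the treated measurement relative to the control measurement.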

[1] = T/C endpoint: mean survival time, dose: 3.13 mg/kg/injection, schedule: Q01DX009 (ip), vehicle: water
[2] = T/C endpoint: mean survival time, dose: 6.25 mg/kg/injection, schedule: Q01DX009 (ip), vehicle: water
[3] = T/C endpoint: mean survival time, dose: 200.0 mg/kg/injection, schedule: Q01DX001 (ip), vehicle: saline
[4] = T/C endpoint: mean survival time, dose: 400.0 mg/kg/injection, schedule: Q01DX001 (ip), vehicle: saline
[5] = T/C endpoint: mean survival time, dose: 400.0 mg/kg/injection, schedule: Q04DX003 (ip), vehicle: saline with Tween-80
[6] = T/C endpoint: mean survival time, dose: 100.0 mg/kg/injection, schedule: Q04DX003 (ip), vehicle: saline with Tween-80

O=C1N[C@@H]([C@H]2CC[C@H](Cl)CN2)C(=O)N[C@H]1[C@H]1CC[C@H](Cl)CN1 was tested, and the T/C (T/C endpoint: mean survival time, dose: 0.25 mg/kg/injection, schedule: Q03HX024 (ip), vehicle: saline) was 143 % of control, the T/C (T/C endpoint: mean survival time, dose: 0.39 mg/kg/injection, schedule: Q01DX009 (ip), vehicle: water) was 113, 116, 117, 120, 125, 136 % of control and the T/C (T/C endpoint: mean survival time, dose: 0.5 mg/kg/injection, schedule: Q01DX009 (ip), vehicle: saline) was 135 % of control. For the same compound, the T/C (T/C endpoint: mean survival time, dose: 0.5 mg/kg/injection, schedule: Q01DX009 (sc), vehicle: saline) was 130 % of control, the T/C (T/C endpoint: mean survival time, dose: 0.5 mg/kg/injection, schedule: Q03HX008 (ip), vehicle: saline) was 145 % of control and the T/C (T/C endpoint: mean survival time, dose: 0.78 mg/kg/injection, schedule: Q01DX009 (ip), vehicle: water) was 130, 134, 139, 145, 148, 150 % of control [2 of 3 alive]. The T/C (T/C endpoint: mean survival time, dose: 1.0 mg/kg/injection, schedule: Q01DX009 (iv), vehicle: saline) was 126 % of control, the T/C (T/C endpoint: mean survival time, dose: 1.0 mg/kg/injection, schedule: Q01DX009 (sc), vehicle: saline) was 147 % of control and the T/C (T/C endpoint: mean survival time, dose: 1.0 mg/kg/injection, schedule: Q04DX003 (ip), vehicle: saline) was 135 % of control. For the same compound, the T/C (T/C endpoint: mean survival time, dose: 1.56 mg/kg/injection, schedule: Q01DX009 (ip), vehicle: water) was 140, 159, 184, 186, 197, 201 % of control, the T/C (T/C endpoint: mean survival time, dose: 2.0 mg/kg/injection, schedule: Q01DX001 (ip), vehicle: saline) was 130 % of control and the T/C (T/C endpoint: mean survival time, dose: 2.0 mg/kg/injection, schedule: Q01DX001 (oral), vehicle: saline) was 132 % of control. The T/C (T/C endpoint: mean survival time, dose: 2.0 mg/kg/injection, schedule: Q01DX009 (sc), vehicle: saline) was 145 % of control, the T/C (T/C endpoint: mean survival time, dose: 2.0 mg/kg/injection, schedule: Q04DX003 (ip), vehicle: saline) was 130 % of control and the T/C (T/C endpoint: mean survival time, dose: 2.0 mg/kg/injection, schedule: Q08DX002 (ip), vehicle: saline) was 143 % of control. For the same compound, the T/C (T/C endpoint: mean survival time, dose: 2.5 mg/kg/injection, schedule: Q01DX001 (ip), vehicle: water) was 145 % of control, the T/C [1] was 106, 225, 232, 250, 282 % of control and the survivor count [1] was 3 of 3. The T/C (T/C endpoint: mean survival time, dose: 4.0 mg/kg/injection, schedule: Q01DX001 (ip), vehicle: saline) was 148 % of control, the T/C (T/C endpoint: mean survival time, dose: 4.0 mg/kg/injection, schedule: Q01DX001 (iv), vehicle: saline) was 127 % of control and the T/C (T/C endpoint: mean survival time, dose: 4.0 mg/kg/injection, schedule: Q01DX001 (oral), vehicle: saline) was 135 % of control [9 of 10 alive]. The T/C (T/C endpoint: mean survival time, dose: 4.0 mg/kg/injection, schedule: Q01DX001 (sc), vehicle: saline) was 136 % of control, the survivor count (T/C endpoint: mean survival time, dose: 4.0 mg/kg/injection, schedule: Q01DX009 (sc), vehicle: saline) was 10 of 10 and the survivor count (T/C endpoint: mean survival time, dose: 4.0 mg/kg/injection, schedule: Q03HX008 (ip), vehicle: saline) was 6 of 10. For the same compound, the survivor count (T/C endpoint: mean survival time, dose: 4.0 mg/kg/injection, schedule: Q03HX016 (ip), vehicle: saline) was 7 of 10, the survivor count (T/C endpoint: mean survival time, dose: 4.0 mg/kg/injection, schedule: Q03HX024 (ip), vehicle: saline) was 4 of 10 and the T/C (T/C endpoint: mean survival time, dose: 4.0 mg/kg/injection, schedule: Q08DX002 (oral), vehicle: saline) was 142 % of control. For the same compound, the T/C (T/C endpoint: mean survival time, dose: 4.4 mg/kg/injection, schedule: Q01DX001 (ip), vehicle: saline) was 160, 163, 167, 217, 234 % of control, the T/C [2] was 102, 103, 108, 127 % of control and the survivor count [2] was 3 of 3 and 6 of 6. For the same compound, the T/C (T/C endpoint: mean survival time, dose: 6.6 mg/kg/injection, schedule: Q01DX001 (ip), vehicle: saline) was 177, 196, 227, 288, 459 % of control, the survivor count (T/C endpoint: mean survival time, dose: 8.0 mg/kg/injection, schedule: Q01DX009 (ip), vehicle: saline) was 10 of 10 and the survivor count (T/C endpoint: mean survival time, dose: 8.0 mg/kg/injection, schedule: Q01DX009 (oral), vehicle: saline) was 10 of 10. The survivor count (T/C endpoint: mean survival time, dose: 8.0 mg/kg/injection, schedule: Q01DX009 (sc), vehicle: saline) was 8 of 10, the survivor count (T/C endpoint: mean survival time, dose: 8.0 mg/kg/injection, schedule: Q03HX008 (ip), vehicle: saline) was 10 of 10 and the T/C (T/C endpoint: mean survival time, dose: 8.0 mg/kg/injection, schedule: Q04DX003 (ip), vehicle: saline) was 129 % of control [9 of 10 alive]. For the same compound, the T/C (T/C endpoint: mean survival time, dose: 10.0 mg/kg/injection, schedule: Q01DX001 (ip), vehicle: saline, evaluated on day 45) was 309 % of control, the T/C (T/C endpoint: mean survival time, dose: 10.0 mg/kg/injection, schedule: Q01DX001 (ip), vehicle: saline, evaluated on day 60) was 220, 290, 350, 353, 394, 655 % of control [9 of 10 alive] and the survivor count (T/C endpoint: mean survival time, dose: 16.0 mg/kg/injection, schedule: Q01DX001 (ip), vehicle: saline) was 5 of 10. The survivor count (T/C endpoint: mean survival time, dose: 16.0 mg/kg/injection, schedule: Q01DX001 (oral), vehicle: saline) was 4 of 10, the survivor count (T/C endpoint: mean survival time, dose: 20.0 mg/kg/injection, schedule: Q01DX001 (ip), vehicle: water) was 10 of 10 and the survivor count (T/C endpoint: mean survival time, dose: 32.0 mg/kg/injection, schedule: Q01DX001 (ip), vehicle: saline) was 10 of 10. The survivor count (T/C endpoint: mean survival time, dose: 32.0 mg/kg/injection, schedule: Q01DX001 (oral), vehicle: saline) was 4 of 10 and 8 of 10, the survivor count (T/C endpoint: mean survival time, dose: 32.0 mg/kg/injection, schedule: Q01DX001 (sc), vehicle: saline) was 10 of 10 and the survivor count (T/C endpoint: mean survival time, dose: 32.0 mg/kg/injection, schedule: Q08DX002 (oral), vehicle: saline) was 6 of 10.

For COc1cc2c(c(OC)c1OC)CCNC2, the survivor count (T/C endpoint: mean survival time, dose: 100.0 mg/kg/injection, schedule: Q01DX001 (ip), vehicle: saline) was 0 of 6, the survivor count [3] was 0 of 6 and the survivor count [4] was 0 of 6.

With CSc1ccc(NC(=O)N(CCCl)N=O)cc1 the T/C (T/C endpoint: mean survival time, dose: 5.3 mg/kg/injection, schedule: Q01DX001 (ip), vehicle: other) was 136 % of control.

CCN(CC)C(C)C(=O)Nc1c(C)cccc1Cl (configuration not stated) was tested, and the survivor count (T/C endpoint: mean survival time, dose: 50.0 mg/kg/injection, schedule: Q01DX009 (ip), vehicle: saline) was 6 of 6, the survivor count (T/C endpoint: mean survival time, dose: 100.0 mg/kg/injection, schedule: Q01DX009 (ip), vehicle: saline) was 6 of 6 and the survivor count [3] was 0 of 6. For the same compound, the survivor count [4] was 0 of 6.

In the case of CCOC(=O)c1c[nH]c2ccc3c(nc(C)n3C)c2c1=O, the survivor count (T/C endpoint: median survival time, dose: 400.0 mg/kg/injection, schedule: Q01DX005 (ip), vehicle: Klucel (hydroxypropylcellulose) (HPC)) is reported as 4 of 6.

In the case of C1CC[N-]CC1.Oc1ccccc1C=NCCN=Cc1ccccc1O.[Co], the survivor count (T/C endpoint: mean survival time, dose: 6.25 mg/kg/injection, schedule: Q04DX002 (ip), vehicle: saline with Tween-80) is reported as 1 of 3, the survivor count (T/C endpoint: mean survival time, dose: 25.0 mg/kg/injection, schedule: Q04DX002 (ip), vehicle: saline with Tween-80) is reported as 0 of 3 and the survivor count (T/C endpoint: mean survival time, dose: 50.0 mg/kg/injection, schedule: Q04DX002 (ip), vehicle: saline with Tween-80) is reported as 0 of 3. For the same compound, the survivor count (T/C endpoint: mean survival time, dose: 100.0 mg/kg/injection, schedule: Q04DX002 (ip), vehicle: saline with Tween-80) was 0 of 3.

In the case of CCC(C)CC(C)N (configuration not stated), the survivor count [3] is reported as 1 of 4 and the survivor count [4] is reported as 0 of 4.

In the case of COc1ccc(Cc2nnc(Cc3ccc(OC)c(OC)c3)nn2)cc1OC, the survivor count [5] is reported as 6 of 6.

For CC(=O)[O][Pb]([CH3])([CH3])[CH3], the survivor count (T/C endpoint: mean survival time, dose: 25.0 mg/kg/injection, schedule: Q04DX003 (ip), vehicle: saline with Tween-80) was 3 of 3, the survivor count (T/C endpoint: mean survival time, dose: 50.0 mg/kg/injection, schedule: Q04DX003 (ip), vehicle: saline with Tween-80) was 3 of 3 and the survivor count [6] was 3 of 3.

With O=C(O)C1C2OC(C(Br)C2Br)C1C(=O)O (configuration not stated) the survivor count (T/C endpoint: mean survival time, dose: 200.0 mg/kg/injection, schedule: Q01DX009 (ip), vehicle: saline) was 3 of 6.

With CC1(C)CSC(=S)N1 the survivor count (T/C endpoint: mean survival time, dose: 20.0 mg/kg/injection, schedule: Q04DX003 (ip), vehicle: saline with Tween-80) was 5 of 6, the survivor count [6] was 0 of 6 and the survivor count (T/C endpoint: mean survival time, dose: 200.0 mg/kg/injection, schedule: Q04DX003 (ip), vehicle: saline with Tween-80) was 0 of 6. The survivor count [5] was 0 of 6.

For CCC1(C)CCC2=C(CCC3C(C)(C(=O)O)CCCC23C)C1 (configuration not stated), the survivor count (T/C endpoint: mean survival time, dose: 400.0 mg/kg/injection, schedule: Q01DX009 (ip), vehicle: saline with Tween-80) was 3 of 6.

NC(N)=Nc1nc(N)nc(N)n1 was tested, and the survivor count (T/C endpoint: mean survival time, dose: 25.0 mg/kg/injection, schedule: Q01DX009 (ip), vehicle: saline with Tween-80) was 3 of 3 and the survivor count (T/C endpoint: mean survival time, dose: 50.0 mg/kg/injection, schedule: Q01DX009 (ip), vehicle: saline with Tween-80) was 0 of 3.

Reference: PubChem BioAssay AID256 (DTP/NCI, 2004)
